Results deposited as PubChem BioAssay AID1259254 (NCATS, 2017).

Screen: 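Genome-wide screen for genes that prevent DNA re-replication in cancer cells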 (primary screen)
Cells: human HCT116 colorectal cancer cells
Reagents: single siRNA against human genes
Timing: 3 days
Read-out: 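Imaged Hoechst DNA stain sorts each cell into a cycle phase by DNA amount; per plate, G2 fraction set to 0% for non-targeting and 100% for GMNN siRNA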
Reading the numbers: G2 robust z-score and G2 cells, % of GMNN control: higher = more G2 cells, more excess DNA replication
Active means: 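Active siRNAs have a G2 robust z of 5 or more median absolute deviations over the median, which in these data means about 38% or higher of GMNN control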
The deposit covers about 59,000 reagents; shown is an unselected part. Of all reagents, about 1,550 (2.6%) are marked active. 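G2 share is only a proxy for re-replication; each gene was hit by three separate siRNAs, and active genes were retested.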 Entries without a mark were called inactive. Reagents against one gene are numbered here. Further read-outs or replicates are left out here. The record does not give: the amount of reagent.

no.	target gene	siRNA no.	G2 robust z-score	G2 cells, % of GMNN control
1	MAP7D3	1	-0.103	2.24
2	MAP7D3	2	-0.755	-2.34
3	MAP7D3	3	3.36	26.6
4	HAPSTR2	1	-0.506	-0.595
5	HAPSTR2	2	1.19	11.4
6	HAPSTR2	3	-0.402	0.139
7	ACTG1P20	1	4.01	31.2
8	ACTG1P20	2	-0.149	1.92
9	ACTG1P20	3	-0.262	1.12
10	GUCA2B	1	-0.0911	2.33
11	GUCA2B	2	-0.39	0.22
12	GUCA2B	3	5.59 (active)	42.3
13	PITRM1	1	0.61	7.26
14	PITRM1	2	2.58	21.1
15	PITRM1	3	-0.0672	2.49
16	AKAP4	1	0.182	4.25
17	AKAP4	2	0.871	9.1
18	AKAP4	3	-0.323	0.697
19	GRAPL	1	3.68	28.9
20	GRAPL	2	-0.236	1.31
21	GRAPL	3	-0.923	-3.53
22	POU2F3	1	-0.355	0.47
23	POU2F3	2	-0.746	-2.28
24	POU2F3	3	1.02	10.2
25	OR5H2	1	-0.349	0.511
26	OR5H2	2	-0.787	-2.57
27	OR5H2	3	5.03 (active)	38.3
28	BARX1	1	0.334	5.32
29	BARX1	2	6.3 (active)	47.3
30	BARX1	3	-0.956	-3.76

3 entries from above, limited to “G2 robust z-score”.
ACTG1P20 #2	-0.149
ACTG1P20 #3	-0.262
GUCA2B #1	-0.0911
